# Assay results reported in the supplement of paper PMC8728848.
# This is one part of the list.
# B1: Langerin K299A/K313A (Homo sapiens), Q9UJ71 (protein)
# chain: STLNAQIPELKSDLEKASALNTKIRALQGSLENMSKLLKRQNDILQVVSQGWKYFKGNFYYFSLIPKTWYSAEQFCVSRNSHLTSVTSESEQEFLYKTAGGLIYWIGLTKAGMEGDWSWVDDTPFNKVQSARFWIPGEPNNAGNNEHCGNIAAPSLQAWNDAPCDATFLFICKRPYVPSEP
# Legend:
# Assay in all cases: glycan array binding signal (z-score within array); higher = stronger binding
# Settings in all cases: glycan notation: IUPAC condensed, linker removed
# [1] = molecular target: Gal(b1-3)GlcNAc(b1-6)[Gal(b1-3)]GalNAc
# Summary of the method: (§1)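 Arrays were curated from the Consortium for Functional Glycomics database, 3228 in total, and kept only where the protein sequence was available. Binding is expressed as a within-array Z-score. This score was averaged across arrays of the same protein sequence at different concentrations or buffers and across linkers, and negative values can be read as non-binding.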
# Gal(b1-3)GlcNAc6S = molecular target: Gal(b1-3)GlcNAc6S
# Summary of the method: as §1
# [2] = molecular target: Gal(b1-3)[Fuc(a1-4)]GlcNAc
# Summary of the method: as §1
# [3] = molecular target: Gal(b1-3)[Fuc(a1-4)]GlcNAc(b1-2)Man
# Summary of the method: as §1
# [4] = molecular target: Gal(b1-3)[Fuc(a1-4)]GlcNAc(b1-2)Man(a1-3)[Gal(b1-3)[Fuc(a1-4)]GlcNAc(b1-2)Man(a1-6)]Man(b1-4)GlcNAc(b1-4)[Fuc(a1-6)]GlcNAc
# Summary of the method: as §1
# [5] = molecular target: Gal(b1-3)[Fuc(a1-4)]GlcNAc(b1-3)Gal(b1-3)[Fuc(a1-4)]GlcNAc
# Summary of the method: as §1
# [6] = molecular target: Gal(b1-3)[Fuc(a1-4)]GlcNAc(b1-3)Gal(b1-4)[Fuc(a1-3)]GlcNAc
# Summary of the method: as §1
# [7] = molecular target: Gal(b1-3)[Fuc(a1-4)]GlcNAc(b1-6)GalNAc
# Summary of the method: as §1
# [8] = molecular target: Gal(b1-3)[GlcNAc(b1-6)]GalNAc
# Summary of the method: as §1
# [9] = molecular target: Gal(b1-3)[Neu5Ac(a2-6)]GalNAc
# Summary of the method: as §1
# [10] = molecular target: Gal(b1-3)[Neu5Ac(a2-6)]GlcNAc(b1-4)Gal(b1-4)Glc
# Summary of the method: as §1
# [11] = molecular target: Gal(b1-3)[Neu5Ac(b2-6)]GalNAc
# Summary of the method: as §1
# Gal(b1-4)Gal = molecular target: Gal(b1-4)Gal
# Summary of the method: as §1
# [12] = molecular target: Gal(b1-4)GalNAc(a1-3)[Fuc(a1-2)]Gal(b1-4)GlcNAc
# Summary of the method: as §1
# [13] = molecular target: Gal(b1-4)GalNAc(b1-3)[Fuc(a1-2)]Gal(b1-4)GlcNAc
# Summary of the method: as §1
# Gal(b1-4)Glc = molecular target: Gal(b1-4)Glc
# Summary of the method: as §1
# Gal(b1-4)Glc6S = molecular target: Gal(b1-4)Glc6S
# Summary of the method: as §1
# Gal(b1-4)GlcNAc = molecular target: Gal(b1-4)GlcNAc
# Summary of the method: as §1
# [14] = molecular target: Gal(b1-4)GlcNAc(a1-6)Gal(b1-4)GlcNAc
# Summary of the method: as §1
# Gal(b1-4)GlcNAc(b1-2)Man = molecular target: Gal(b1-4)GlcNAc(b1-2)Man
# Summary of the method: as §1
# [15] = molecular target: Gal(b1-4)GlcNAc(b1-2)Man(a1-3)Man(b1-4)GlcNAc(b1-4)GlcNAc
# Summary of the method: as §1
# [16] = molecular target: Gal(b1-4)GlcNAc(b1-2)Man(a1-3)[Gal(b1-4)GlcNAc(b1-2)Man(a1-6)]Man(b1-4)GlcNAc(b1-4)GlcNAc
# Summary of the method: as §1
# [17] = molecular target: Gal(b1-4)GlcNAc(b1-2)Man(a1-3)[Gal(b1-4)GlcNAc(b1-2)Man(a1-6)]Man(b1-4)GlcNAc(b1-4)[Fuc(a1-6)]GlcNAc
# Summary of the method: as §1
# [18] = molecular target: Gal(b1-4)GlcNAc(b1-2)Man(a1-3)[Gal(b1-4)GlcNAc(b1-2)Man(a1-6)][Gal(b1-4)GlcNAc(b1-4)]Man(b1-4)GlcNAc(b1-4)[Fuc(a1-6)]GlcNAc
# Summary of the method: as §1
# [19] = molecular target: Gal(b1-4)GlcNAc(b1-2)Man(a1-3)[Gal(b1-4)GlcNAc(b1-2)Man(a1-6)][GlcNAc(b1-4)]Man(b1-4)GlcNAc(b1-4)[Fuc(a1-6)]GlcNAc
# Summary of the method: as §1
# [20] = molecular target: Gal(b1-4)GlcNAc(b1-2)Man(a1-3)[GlcNAc(b1-2)Man(a1-6)]Man(b1-4)GlcNAc(b1-4)GlcNAc
# Summary of the method: as §1
# [21] = molecular target: Gal(b1-4)GlcNAc(b1-2)Man(a1-3)[GlcNAc(b1-4)][Gal(b1-4)GlcNAc(b1-2)Man(a1-6)]Man(b1-4)GlcNAc(b1-4)GlcNAc
# Summary of the method: as §1
# [22] = molecular target: Gal(b1-4)GlcNAc(b1-2)Man(a1-3)[Man(a1-6)]Man(b1-4)GlcNAc(b1-4)GlcNAc
# Summary of the method: as §1
# [23] = molecular target: Gal(b1-4)GlcNAc(b1-2)Man(a1-6)Man(b1-4)GlcNAc(b1-4)GlcNAc
# Summary of the method: as §1
# [24] = molecular target: Gal(b1-4)GlcNAc(b1-2)Man(a1-6)[GlcNAc(b1-2)Man(a1-3)]Man(b1-4)GlcNAc(b1-4)GlcNAc
# Summary of the method: as §1
# [25] = molecular target: Gal(b1-4)GlcNAc(b1-2)Man(a1-6)[Man(a1-3)]Man(b1-4)GlcNAc(b1-4)GlcNAc
# Summary of the method: as §1
# [26] = molecular target: Gal(b1-4)GlcNAc(b1-2)[Gal(b1-4)GlcNAc(b1-4)]Man(a1-3)[Gal(b1-4)GlcNAc(b1-2)Man(a1-6)]Man(b1-4)GlcNAc(b1-4)GlcNAc
# Summary of the method: as §1
# [27] = molecular target: Gal(b1-4)GlcNAc(b1-2)[Gal(b1-4)GlcNAc(b1-4)]Man(a1-3)[Gal(b1-4)GlcNAc(b1-2)[Gal(b1-4)GlcNAc(b1-6)]Man(a1-6)]Man(b1-4)GlcNAc(b1-4)GlcNAc
# Summary of the method: as §1
# [28] = molecular target: Gal(b1-4)GlcNAc(b1-2)[Gal(b1-4)GlcNAc(b1-4)]Man(a1-3)[GlcNAc(b1-4)][Gal(b1-4)GlcNAc(b1-2)Man(a1-6)]Man(b1-4)GlcNAc(b1-4)GlcNAc
# Summary of the method: as §1
# [29] = molecular target: Gal(b1-4)GlcNAc(b1-2)[Gal(b1-4)GlcNAc(b1-4)]Man(a1-3)[GlcNAc(b1-4)][Gal(b1-4)GlcNAc(b1-2)[Gal(b1-4)GlcNAc(b1-6)]Man(a1-6)]Man(b1-4)GlcNAc(b1-4)GlcNAc
# Summary of the method: as §1
# [30] = molecular target: Gal(b1-4)GlcNAc(b1-2)[Gal(b1-4)GlcNAc(b1-6)]Man(a1-6)[Gal(b1-4)GlcNAc(b1-2)Man(a1-3)]Man(b1-4)GlcNAc(b1-4)GlcNAc
# Summary of the method: as §1
# [31] = molecular target: Gal(b1-4)GlcNAc(b1-2)[Gal(b1-4)GlcNAc(b1-6)]Man(a1-6)[Gal(b1-4)GlcNAc(b1-2)Man(a1-3)]Man(b1-4)GlcNAc(b1-4)[Fuc(a1-6)]GlcNAc
# Summary of the method: as §1
# [32] = molecular target: Gal(b1-4)GlcNAc(b1-2)[Gal(b1-4)GlcNAc(b1-6)]Man(a1-6)[GlcNAc(b1-4)][Gal(b1-4)GlcNAc(b1-2)Man(a1-3)]Man(b1-4)GlcNAc(b1-4)GlcNAc
# Summary of the method: as §1
# [33] = molecular target: Gal(b1-4)GlcNAc(b1-2)[Gal(b1-4)GlcNAc(b1-6)]Man(a1-6)[GlcNAc(b1-4)][Gal(b1-4)GlcNAc(b1-2)[Gal(b1-4)GlcNAc(b1-4)]Man(a1-3)]Man(b1-4)GlcNAc(b1-4)[Fuc(a1-6)]GlcNAc
# Summary of the method: as §1
# [34] = molecular target: Gal(b1-4)GlcNAc(b1-3)Gal(b1-3)GalNAc
# Summary of the method: as §1
# [35] = molecular target: Gal(b1-4)GlcNAc(b1-3)Gal(b1-3)GlcNAc
# Summary of the method: as §1
# [36] = molecular target: Gal(b1-4)GlcNAc(b1-3)Gal(b1-4)Glc
# Summary of the method: as §1
# [37] = molecular target: Gal(b1-4)GlcNAc(b1-3)Gal(b1-4)GlcNAc
# Summary of the method: as §1
# [38] = molecular target: Gal(b1-4)GlcNAc(b1-3)Gal(b1-4)GlcNAc(b1-2)Man(a1-3)[Gal(b1-4)GlcNAc(b1-3)Gal(b1-4)GlcNAc(b1-2)Man(a1-6)]Man(b1-4)GlcNAc(b1-4)GlcNAc
# Summary of the method: as §1
# [39] = molecular target: Gal(b1-4)GlcNAc(b1-3)Gal(b1-4)GlcNAc(b1-2)Man(a1-3)[Gal(b1-4)GlcNAc(b1-3)Gal(b1-4)GlcNAc(b1-2)Man(a1-6)]Man(b1-4)GlcNAc(b1-4)[Fuc(a1-6)]GlcNAc
# Summary of the method: as §1
binder,measurement,setting,value
B1,glycan array binding signal (z-score),[1],-0.7
same,glycan array binding signal (z-score),Gal(b1-3)GlcNAc6S,-0.632
same,glycan array binding signal (z-score),[2],-0.481
same,glycan array binding signal (z-score),[3],-0.581
same,glycan array binding signal (z-score),[4],1.85
same,glycan array binding signal (z-score),[5],0.096
same,glycan array binding signal (z-score),[6],-0.099
same,glycan array binding signal (z-score),[7],0.758
same,glycan array binding signal (z-score),[8],-0.163
same,glycan array binding signal (z-score),[9],0.445
same,glycan array binding signal (z-score),[10],-0.022
same,glycan array binding signal (z-score),[11],-0.281
same,glycan array binding signal (z-score),Gal(b1-4)Gal,0.458
same,glycan array binding signal (z-score),[12],-0.793
same,glycan array binding signal (z-score),[13],0.446
same,glycan array binding signal (z-score),Gal(b1-4)Glc,0.163
same,glycan array binding signal (z-score),Gal(b1-4)Glc6S,-0.674
same,glycan array binding signal (z-score),Gal(b1-4)GlcNAc,-0.411
same,glycan array binding signal (z-score),[14],-0.727
same,glycan array binding signal (z-score),Gal(b1-4)GlcNAc(b1-2)Man,-0.733
same,glycan array binding signal (z-score),[15],-0.806
same,glycan array binding signal (z-score),[16],-0.291
same,glycan array binding signal (z-score),[17],0.706
same,glycan array binding signal (z-score),[18],-1.07
same,glycan array binding signal (z-score),[19],-0.072
same,glycan array binding signal (z-score),[20],-0.25
same,glycan array binding signal (z-score),[21],-1.28
same,glycan array binding signal (z-score),[22],0.157
same,glycan array binding signal (z-score),[23],-1.18
same,glycan array binding signal (z-score),[24],-0.751
same,glycan array binding signal (z-score),[25],-0.914
same,glycan array binding signal (z-score),[26],0.381
same,glycan array binding signal (z-score),[27],-0.403
same,glycan array binding signal (z-score),[28],-0.95
same,glycan array binding signal (z-score),[29],-0.204
same,glycan array binding signal (z-score),[30],0.52
same,glycan array binding signal (z-score),[31],1.26
same,glycan array binding signal (z-score),[32],-0.291
same,glycan array binding signal (z-score),[33],0.35
same,glycan array binding signal (z-score),[34],-0.417
same,glycan array binding signal (z-score),[35],-1.11
same,glycan array binding signal (z-score),[36],-0.709
same,glycan array binding signal (z-score),[37],-0.206
same,glycan array binding signal (z-score),[38],3.14
same,glycan array binding signal (z-score),[39],1.43

# Already shown: entries from further up.
binder,measurement,setting,value
B1,glycan array binding signal (z-score),[15],-0.806
same,glycan array binding signal (z-score),[16],-0.291
same,glycan array binding signal (z-score),[17],0.706
